According to the supplement of paper PMC8728848:
Some of the results follow.

Assays:
Experiment in all cases: glycan array binding signal (z-score within array); higher = stronger binding
Settings in all cases: glycan notation: IUPAC condensed, linker removed; mutation: D224N
[1] = target: Neu5Ac(a2-6)Gal(b1-4)GlcNAc(b1-3)[Neu5Ac(a2-6)Gal(b1-4)GlcNAc(b1-6)]GalNAc
Procedure, shortened: (§1)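 Glycan array data were curated from 3228 arrays in the Consortium for Functional Glycomics database and kept only where the protein sequence was available. Glycan names were converted to IUPAC-condensed notation, and columns mapping to the same glycan were averaged. The binding signal is a within-array Z-score, averaged across arrays of the same protein sequence at different concentrations or buffers and across linkers. Negative Z-scores can be read as non-binding.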

[2] = target: Neu5Ac(a2-6)Gal(b1-4)GlcNAc(b1-6)GalNAc
Procedure, shortened: as §1

[3] = target: Neu5Ac(a2-6)Gal(b1-4)GlcNAc(b1-6)[Gal(b1-3)GlcNAc(b1-3)]Gal(b1-4)Glc
Procedure, shortened: as §1

[4] = target: Neu5Ac(a2-6)Gal(b1-4)GlcNAc(b1-6)[Gal(b1-3)]GalNAc
Procedure, shortened: as §1

[5] = target: Neu5Ac(a2-6)Gal(b1-4)GlcNAc6S
Procedure, shortened: as §1

Neu5Ac(a2-6)GalNAc = target: Neu5Ac(a2-6)GalNAc
Procedure, shortened: as §1

[6] = target: Neu5Ac(a2-6)GalNAc(b1-4)GlcNAc
Procedure, shortened: as §1

[7] = target: Neu5Ac(a2-6)GalNAc(b1-4)GlcNAc6S
Procedure, shortened: as §1

[8] = target: Neu5Ac(a2-6)GlcNAc(b1-4)GlcNAc
Procedure, shortened: as §1

[9] = target: Neu5Ac(a2-6)GlcNAc(b1-4)GlcNAc(b1-4)GlcNAc
Procedure, shortened: as §1

Neu5Ac(a2-8)Neu5Ac = target: Neu5Ac(a2-8)Neu5Ac
Procedure, shortened: as §1

[10] = target: Neu5Ac(a2-8)Neu5Ac(a2-3)Gal(b1-3)GalNAc(b1-4)[Neu5Ac(a2-3)]Gal(b1-4)Glc
Procedure, shortened: as §1

[11] = target: Neu5Ac(a2-8)Neu5Ac(a2-3)Gal(b1-3)GalNAc(b1-4)[Neu5Ac(a2-8)Neu5Ac(a2-3)]Gal(b1-4)Glc
Procedure, shortened: as §1

[12] = target: Neu5Ac(a2-8)Neu5Ac(a2-3)Gal(b1-4)Glc
Procedure, shortened: as §1

[13] = target: Neu5Ac(a2-8)Neu5Ac(a2-3)Gal(b1-4)GlcNAc
Procedure, shortened: as §1

[14] = target: Neu5Ac(a2-8)Neu5Ac(a2-3)[Gal(b1-3)GalNAc(b1-4)]Gal(b1-4)Glc
Procedure, shortened: as §1

[15] = target: Neu5Ac(a2-8)Neu5Ac(a2-3)[GalNAc(b1-4)]Gal(b1-4)Glc
Procedure, shortened: as §1

[16] = target: Neu5Ac(a2-8)Neu5Ac(a2-8)Neu5Ac
Procedure, shortened: as §1

[17] = target: Neu5Ac(a2-8)Neu5Ac(a2-8)Neu5Ac(a2-3)Gal(b1-4)Glc
Procedure, shortened: as §1

[18] = target: Neu5Ac(a2-8)Neu5Ac(a2-8)Neu5Ac(a2-3)[Gal(b1-3)GalNAc(b1-4)]Gal(b1-4)Glc
Procedure, shortened: as §1

[19] = target: Neu5Ac(a2-8)Neu5Ac(a2-8)Neu5Ac(a2-3)[GalNAc(b1-4)]Gal(b1-4)Glc
Procedure, shortened: as §1

[20] = target: Neu5Ac(a2-8)Neu5Ac(a2-8)Neu5Ac(a2-8)Neu5Ac(a2-3)[GalNAc(b1-4)]Gal(b1-4)Glc
Procedure, shortened: as §1

[21] = target: Neu5Ac(a2-8)Neu5Gc(a2-3)Gal(b1-4)GlcNAc
Procedure, shortened: as §1

[22] = target: Neu5Ac(b2-6)Gal(b1-4)GlcNAc
Procedure, shortened: as §1

Neu5Ac(b2-6)GalNAc = target: Neu5Ac(b2-6)GalNAc
Procedure, shortened: as §1

[23] = target: Neu5Ac9Ac(a2-3)Gal(b1-3)GlcNAc
Procedure, shortened: as §1

[24] = target: Neu5Ac9Ac(a2-3)Gal(b1-4)GlcNAc
Procedure, shortened: as §1

[25] = target: Neu5Ac9Ac(a2-6)Gal(b1-4)GlcNAc
Procedure, shortened: as §1

[26] = target: Neu5Gc(a2-3)Gal(b1-3)GlcNAc
Procedure, shortened: as §1

[27] = target: Neu5Gc(a2-3)Gal(b1-3)[Fuc(a1-4)]GlcNAc
Procedure, shortened: as §1

Neu5Gc(a2-3)Gal(b1-4)Glc = target: Neu5Gc(a2-3)Gal(b1-4)Glc
Procedure, shortened: as §1

[28] = target: Neu5Gc(a2-3)Gal(b1-4)GlcNAc
Procedure, shortened: as §1

[29] = target: Neu5Gc(a2-3)Gal(b1-4)GlcNAc(b1-3)Gal(b1-4)GlcNAc(b1-2)Man(a1-3)[Neu5Gc(a2-3)Gal(b1-4)GlcNAc(b1-3)Gal(b1-4)GlcNAc(b1-2)Man(a1-6)]Man(b1-4)GlcNAc(b1-4)GlcNAc
Procedure, shortened: as §1

[30] = target: Neu5Gc(a2-3)Gal(b1-4)[Fuc(a1-3)]GlcNAc
Procedure, shortened: as §1

[31] = target: Neu5Gc(a2-6)Gal(b1-4)GlcNAc
Procedure, shortened: as §1

Neu5Gc(a2-6)GalNAc = target: Neu5Gc(a2-6)GalNAc
Procedure, shortened: as §1

[32] = target: Neu5Gc(a2-8)Neu5Ac(a2-3)Gal(b1-4)GlcNAc
Procedure, shortened: as §1

[33] = target: Neu5Gc(a2-8)Neu5Gc(a2-3)Gal(b1-4)GlcNAc
Procedure, shortened: as §1

B1: a L Fucosidase (Thermotoga maritima) (protein)
chain: MASMKPRYKPDWESLREHTVPKWFDKAKFGIFIHWGIYSVPGWATPTGELGKVPMDAWFFQNPYAEWYENSLRIKESPTWEYHVKTYGENFEYEKFADLFTAEKWDPQEWADLFKKAGAKYVIPTTKHHDGFCLWGTKYTDFNSVKRGPKRDLVGDLAKAVREAGLRFGVYYSGGLDWRFTTEPIRYPEDLSYIRPNTYEYADYAYKQVMELVDLYLPDVLWNNMGWPEKGKEDLKYLFAYYYNKHPEGSVNDRWGVPHWDFKTAEYHVNYPGDLPGYKWEFTRGIGLSFGYNRNEGPEHMLSVEQLVYTLVDVVSKGGNLLLNVGPKGDGTIPDLQKERLLGLGEWLRKYGDAIYGTSVWERCCAKTEDGTEIRFTRKCNRIFVIFLGIPTGEKIVIEDLNLSAGTVRHFLTGERLSFKNVGKNLEITVPKKLLETDSITLVLEAVEE
What does the source list for B1?
glycan array binding signal (z-score) [1]: 0.112; glycan array binding signal (z-score) [2]: 0.167; glycan array binding signal (z-score) [3]: -0.838; glycan array binding signal (z-score) [4]: 1.05; glycan array binding signal (z-score) [5]: -0.69; glycan array binding signal (z-score) (Neu5Ac(a2-6)GalNAc): -0.767; glycan array binding signal (z-score) [6]: -1.05; glycan array binding signal (z-score) [7]: -0.271; glycan array binding signal (z-score) [8]: -0.008; glycan array binding signal (z-score) [9]: -0.648; glycan array binding signal (z-score) (Neu5Ac(a2-8)Neu5Ac): -0.225; glycan array binding signal (z-score) [10]: 1.06; glycan array binding signal (z-score) [11]: 0.471; glycan array binding signal (z-score) [12]: -0.893; glycan array binding signal (z-score) [13]: 0.131; glycan array binding signal (z-score) [14]: -0.705; glycan array binding signal (z-score) [15]: 0.295; glycan array binding signal (z-score) [16]: -0.45; glycan array binding signal (z-score) [17]: 0.654; glycan array binding signal (z-score) [18]: -0.502; glycan array binding signal (z-score) [19]: 0.362; glycan array binding signal (z-score) [20]: -0.058; glycan array binding signal (z-score) [21]: 0.814; glycan array binding signal (z-score) [22]: -0.799; glycan array binding signal (z-score) (Neu5Ac(b2-6)GalNAc): 0.396; glycan array binding signal (z-score) [23]: -0.255; glycan array binding signal (z-score) [24]: -0.166; glycan array binding signal (z-score) [25]: -0.177; glycan array binding signal (z-score) [26]: -1.22; glycan array binding signal (z-score) [27]: 0.083; glycan array binding signal (z-score) (Neu5Gc(a2-3)Gal(b1-4)Glc): -0.385; glycan array binding signal (z-score) [28]: 0.097; glycan array binding signal (z-score) [29]: 1.05; glycan array binding signal (z-score) [30]: -0.05; glycan array binding signal (z-score) [31]: -0.094; glycan array binding signal (z-score) (Neu5Gc(a2-6)GalNAc): 0.295; glycan array binding signal (z-score) [32]: -0.329; glycan array binding signal (z-score) [33]: -0.573
